# PubChem BioAssay AID504784 – Drosophila RNAi Screening Center – 2011
# Assay: 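Genome-wide knock-down for genes giving too much or too little stored lipid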 (primary screen)
# Cells: Drosophila Kc167 embryonic cells
# Knock-down reagent: long dsRNA against Drosophila genes, about 250 ng dsRNA per well
# Timing: 4 days
# Conditions: cells fed 400 µM oleic acid bound to BSA
# Read-out: 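Cells imaged and segmented; ratio of lipid droplet area to nuclear area, log-transformed, then normalised as a B-score over the screen; higher means more stored lipid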
# Direction: droplet/nuclear area B-score: higher = more stored lipid (overstorage)
# In all, the deposit lists about 17,000 reagents; this is a random part of those with a known target gene and a result. 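Each column is one replicate's B-score; the combined score over replicates was not deposited, so single values may mislead.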
Target gene,DRSC id,"droplet/nuclear area B-score, replicate 1","droplet/nuclear area B-score, replicate 2","droplet/nuclear area B-score, replicate 3"
CG3566,DRSC18311,-1.04,-0.451,
scrib,DRSC13774,0.0281,-1.17,
scrib,DRSC15809,-0.183,5.1,
scrib,DRSC17051,-1.48,-0.737,
eIF4E5,DRSC10975,0.328,0.437,
CG9997,DRSC16591,-1.23,1.26,
Orc2,DRSC16776,-5.44,3.93,
Pli,DRSC16792,-2.06,0.156,
cv-d,DRSC16522,-1.55,-1.26,
cv-d,DRSC16524,0.44,-0.327,
cv-d,DRSC16526,-1.32,-1.04,
Apoltp,DRSC02508,0.22,0.341,
CG42676,DRSC08227,2.41,3.81,
CG42676,DRSC08392,1.64,-0.168,
adp,DRSC06916,-0.473,,
Ypel,DRSC17996,-4.06,0.577,-1.49
CG14036,DRSC02361,-0.107,1.09,
Hayan,DRSC19989,-0.191,-0.35,0.486
Hayan,DRSC22231,-1.83,0.953,
Pak3,DRSC15017,0.0913,0.495,
CG11630,DRSC03696,-1.47,1.42,
pths,DRSC03171,1.89,2.8,
CG13912,DRSC08381,-0.564,-0.0256,
Nnf1b,DRSC22080,-0.992,-1.46,
COX4,DRSC02091,5.86,3.41,
Gk2,DRSC08610,-0.0592,0.951,
bnb,DRSC20314,-0.535,-0.588,
mor,DRSC15378,1.53,1.86,
wrd,DRSC16337,0.73,,
wrd,DRSC16344,-2.12,-2.87,
wrd,DRSC23189,0.546,-0.96,
PpD6,DRSC00774,1.99,1.24,
PpD6,DRSC23331,0.66,2.92,
CG6912,DRSC16132,0.218,0.777,

Laid out differently: results already given
Target gene | DRSC id | droplet/nuclear area B-score, replicate 1 | droplet/nuclear area B-score, replicate 2 | droplet/nuclear area B-score, replicate 3
CG9997 | DRSC16591 | -1.23 | 1.26 | –
Orc2 | DRSC16776 | -5.44 | 3.93 | –
Pli | DRSC16792 | -2.06 | 0.156 | –
cv-d | DRSC16522 | -1.55 | -1.26 | –
